# Reference: the supplement of paper PMC12067093, “Discovery and optimisation of a covalent ligand for TRIM25 and its application to targeted protein ubiquitination” (Chemical Science, 2025)
# Protein sequences, listed by entry. Tags and fused reporters are not part of them. Lines headed by an entry give the natural chain unless they say otherwise; changes in a name come on top.
# UniProt Q06547, whole entry, looked up: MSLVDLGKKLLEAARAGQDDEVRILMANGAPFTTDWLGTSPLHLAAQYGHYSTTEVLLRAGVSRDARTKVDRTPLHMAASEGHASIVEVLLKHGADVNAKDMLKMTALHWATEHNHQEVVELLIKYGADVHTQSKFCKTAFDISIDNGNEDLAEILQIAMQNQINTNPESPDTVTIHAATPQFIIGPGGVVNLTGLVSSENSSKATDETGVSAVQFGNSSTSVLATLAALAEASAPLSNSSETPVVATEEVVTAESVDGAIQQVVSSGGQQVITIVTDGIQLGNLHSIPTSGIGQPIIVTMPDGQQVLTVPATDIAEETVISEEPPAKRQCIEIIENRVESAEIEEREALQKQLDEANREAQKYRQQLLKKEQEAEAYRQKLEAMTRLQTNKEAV
# UniProt Q8NFF5: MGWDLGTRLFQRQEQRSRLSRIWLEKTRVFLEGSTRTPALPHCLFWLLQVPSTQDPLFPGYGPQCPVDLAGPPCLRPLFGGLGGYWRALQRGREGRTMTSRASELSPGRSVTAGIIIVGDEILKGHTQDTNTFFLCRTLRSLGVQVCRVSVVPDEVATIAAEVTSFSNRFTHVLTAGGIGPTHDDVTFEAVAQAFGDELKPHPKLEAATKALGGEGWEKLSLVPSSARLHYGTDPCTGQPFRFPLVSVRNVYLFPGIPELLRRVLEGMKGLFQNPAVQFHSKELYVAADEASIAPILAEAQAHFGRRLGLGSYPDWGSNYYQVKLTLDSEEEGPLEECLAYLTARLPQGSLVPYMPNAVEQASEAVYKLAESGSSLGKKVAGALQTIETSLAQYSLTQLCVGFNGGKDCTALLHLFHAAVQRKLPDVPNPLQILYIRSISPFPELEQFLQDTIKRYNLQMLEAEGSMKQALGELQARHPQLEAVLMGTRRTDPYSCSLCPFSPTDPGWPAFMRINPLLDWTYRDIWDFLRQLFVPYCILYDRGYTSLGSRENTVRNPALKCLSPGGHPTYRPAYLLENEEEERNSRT
# UniProt Q9Y613: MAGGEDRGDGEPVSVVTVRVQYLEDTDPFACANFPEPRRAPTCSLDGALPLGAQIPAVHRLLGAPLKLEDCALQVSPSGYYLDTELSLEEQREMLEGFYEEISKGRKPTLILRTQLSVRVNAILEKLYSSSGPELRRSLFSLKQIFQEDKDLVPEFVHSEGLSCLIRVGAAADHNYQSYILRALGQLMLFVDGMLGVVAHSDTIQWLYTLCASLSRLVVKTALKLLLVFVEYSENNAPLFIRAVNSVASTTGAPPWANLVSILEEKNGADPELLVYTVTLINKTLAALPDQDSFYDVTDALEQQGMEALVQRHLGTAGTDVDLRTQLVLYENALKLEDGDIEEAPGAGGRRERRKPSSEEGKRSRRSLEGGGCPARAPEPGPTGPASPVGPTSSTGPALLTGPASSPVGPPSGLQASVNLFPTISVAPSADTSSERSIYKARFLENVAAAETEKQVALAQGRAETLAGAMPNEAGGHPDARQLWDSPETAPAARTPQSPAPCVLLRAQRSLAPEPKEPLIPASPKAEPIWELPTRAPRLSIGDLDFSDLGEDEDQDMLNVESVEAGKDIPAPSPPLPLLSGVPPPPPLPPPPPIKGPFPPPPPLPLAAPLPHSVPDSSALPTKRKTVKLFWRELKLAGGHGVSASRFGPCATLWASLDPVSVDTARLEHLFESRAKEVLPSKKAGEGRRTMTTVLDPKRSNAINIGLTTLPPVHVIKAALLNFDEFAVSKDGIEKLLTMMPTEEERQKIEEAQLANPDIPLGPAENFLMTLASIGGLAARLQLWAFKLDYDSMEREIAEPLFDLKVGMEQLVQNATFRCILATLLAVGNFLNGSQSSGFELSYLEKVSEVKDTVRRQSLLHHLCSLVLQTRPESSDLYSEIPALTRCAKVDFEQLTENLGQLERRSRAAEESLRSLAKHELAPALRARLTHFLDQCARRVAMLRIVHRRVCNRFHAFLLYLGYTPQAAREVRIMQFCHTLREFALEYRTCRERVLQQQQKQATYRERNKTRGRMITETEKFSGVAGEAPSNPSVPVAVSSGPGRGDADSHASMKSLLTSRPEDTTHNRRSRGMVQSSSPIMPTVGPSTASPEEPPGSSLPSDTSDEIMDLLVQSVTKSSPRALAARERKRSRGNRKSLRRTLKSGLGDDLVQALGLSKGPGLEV
# UniProt P35637: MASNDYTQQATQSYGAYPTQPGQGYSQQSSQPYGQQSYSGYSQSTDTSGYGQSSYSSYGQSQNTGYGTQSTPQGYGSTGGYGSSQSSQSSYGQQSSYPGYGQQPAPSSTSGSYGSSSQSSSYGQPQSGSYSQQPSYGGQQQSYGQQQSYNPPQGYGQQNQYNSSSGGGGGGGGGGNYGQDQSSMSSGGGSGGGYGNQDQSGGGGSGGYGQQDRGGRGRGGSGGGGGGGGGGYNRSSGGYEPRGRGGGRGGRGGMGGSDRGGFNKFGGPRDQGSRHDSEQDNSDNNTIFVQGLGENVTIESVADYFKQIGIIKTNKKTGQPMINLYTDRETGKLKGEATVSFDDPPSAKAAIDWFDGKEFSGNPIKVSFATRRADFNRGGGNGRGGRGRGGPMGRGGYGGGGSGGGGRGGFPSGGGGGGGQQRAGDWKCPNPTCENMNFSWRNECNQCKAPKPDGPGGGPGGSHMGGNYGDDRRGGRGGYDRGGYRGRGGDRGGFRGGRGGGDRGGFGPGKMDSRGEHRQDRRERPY
# UniProt Q92562: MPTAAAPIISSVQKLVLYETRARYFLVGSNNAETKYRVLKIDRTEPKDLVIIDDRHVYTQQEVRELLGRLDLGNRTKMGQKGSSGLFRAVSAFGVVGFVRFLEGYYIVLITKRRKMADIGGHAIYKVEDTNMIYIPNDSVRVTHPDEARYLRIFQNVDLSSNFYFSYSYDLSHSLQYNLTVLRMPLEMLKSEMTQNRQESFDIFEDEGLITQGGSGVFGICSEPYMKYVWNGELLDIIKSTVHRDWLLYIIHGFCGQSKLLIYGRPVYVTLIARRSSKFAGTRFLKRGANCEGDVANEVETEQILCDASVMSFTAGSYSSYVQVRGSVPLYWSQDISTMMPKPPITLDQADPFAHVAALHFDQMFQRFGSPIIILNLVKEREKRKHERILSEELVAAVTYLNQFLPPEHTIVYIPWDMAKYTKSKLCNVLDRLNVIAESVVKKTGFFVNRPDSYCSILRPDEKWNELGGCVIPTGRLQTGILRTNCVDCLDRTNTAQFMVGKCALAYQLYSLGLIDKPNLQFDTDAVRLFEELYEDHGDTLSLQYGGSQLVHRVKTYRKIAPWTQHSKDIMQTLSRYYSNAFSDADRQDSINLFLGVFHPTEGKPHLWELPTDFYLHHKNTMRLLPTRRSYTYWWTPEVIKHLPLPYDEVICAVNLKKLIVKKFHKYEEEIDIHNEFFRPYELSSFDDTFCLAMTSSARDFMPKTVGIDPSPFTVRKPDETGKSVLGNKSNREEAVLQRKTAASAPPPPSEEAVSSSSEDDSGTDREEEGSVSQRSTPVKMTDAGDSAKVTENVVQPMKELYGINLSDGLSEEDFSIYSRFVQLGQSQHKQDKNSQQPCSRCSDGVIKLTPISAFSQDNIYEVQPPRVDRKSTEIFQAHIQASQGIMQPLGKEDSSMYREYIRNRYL
# UniProt Q13045: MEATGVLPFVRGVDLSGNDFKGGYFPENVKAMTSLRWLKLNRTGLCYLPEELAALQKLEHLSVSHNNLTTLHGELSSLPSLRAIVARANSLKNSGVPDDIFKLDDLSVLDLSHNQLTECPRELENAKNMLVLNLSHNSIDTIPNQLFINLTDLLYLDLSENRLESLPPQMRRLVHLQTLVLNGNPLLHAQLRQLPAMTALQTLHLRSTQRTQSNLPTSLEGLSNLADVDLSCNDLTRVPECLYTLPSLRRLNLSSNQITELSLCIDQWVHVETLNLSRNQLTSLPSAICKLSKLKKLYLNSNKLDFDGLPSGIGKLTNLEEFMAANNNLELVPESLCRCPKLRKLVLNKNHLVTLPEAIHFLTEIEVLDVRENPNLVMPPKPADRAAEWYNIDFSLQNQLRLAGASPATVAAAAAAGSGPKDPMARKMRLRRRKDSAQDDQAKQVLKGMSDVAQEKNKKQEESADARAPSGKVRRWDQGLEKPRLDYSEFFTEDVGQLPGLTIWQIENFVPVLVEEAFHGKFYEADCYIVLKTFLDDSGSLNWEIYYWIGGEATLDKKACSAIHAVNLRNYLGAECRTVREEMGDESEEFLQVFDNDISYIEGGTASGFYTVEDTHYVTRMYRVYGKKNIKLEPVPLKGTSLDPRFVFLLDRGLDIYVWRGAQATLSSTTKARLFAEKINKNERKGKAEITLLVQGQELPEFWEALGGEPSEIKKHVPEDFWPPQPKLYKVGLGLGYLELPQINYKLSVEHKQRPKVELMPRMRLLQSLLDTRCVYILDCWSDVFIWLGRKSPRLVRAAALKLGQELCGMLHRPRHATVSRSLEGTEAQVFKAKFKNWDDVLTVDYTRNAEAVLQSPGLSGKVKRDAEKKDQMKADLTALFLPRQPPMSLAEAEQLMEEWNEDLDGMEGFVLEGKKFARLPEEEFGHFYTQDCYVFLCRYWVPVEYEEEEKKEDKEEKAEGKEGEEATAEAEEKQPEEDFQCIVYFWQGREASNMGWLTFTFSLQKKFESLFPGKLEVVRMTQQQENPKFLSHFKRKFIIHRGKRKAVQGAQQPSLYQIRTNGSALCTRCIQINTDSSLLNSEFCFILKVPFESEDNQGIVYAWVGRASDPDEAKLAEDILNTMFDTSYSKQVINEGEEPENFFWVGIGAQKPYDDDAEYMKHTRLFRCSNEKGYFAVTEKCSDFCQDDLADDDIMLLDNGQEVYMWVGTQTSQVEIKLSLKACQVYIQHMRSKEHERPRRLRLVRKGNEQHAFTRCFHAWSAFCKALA
# UniProt Q9UIM3: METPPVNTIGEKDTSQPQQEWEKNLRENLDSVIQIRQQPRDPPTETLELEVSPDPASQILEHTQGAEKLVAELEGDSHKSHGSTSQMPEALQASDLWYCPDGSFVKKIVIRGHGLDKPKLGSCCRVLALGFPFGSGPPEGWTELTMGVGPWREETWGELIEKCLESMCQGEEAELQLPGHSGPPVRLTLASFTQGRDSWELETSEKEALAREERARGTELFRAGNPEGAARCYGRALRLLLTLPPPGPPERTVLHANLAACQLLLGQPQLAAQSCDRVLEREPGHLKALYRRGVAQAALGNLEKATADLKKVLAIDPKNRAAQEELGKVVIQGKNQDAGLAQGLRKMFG
# UniProt Q4L180: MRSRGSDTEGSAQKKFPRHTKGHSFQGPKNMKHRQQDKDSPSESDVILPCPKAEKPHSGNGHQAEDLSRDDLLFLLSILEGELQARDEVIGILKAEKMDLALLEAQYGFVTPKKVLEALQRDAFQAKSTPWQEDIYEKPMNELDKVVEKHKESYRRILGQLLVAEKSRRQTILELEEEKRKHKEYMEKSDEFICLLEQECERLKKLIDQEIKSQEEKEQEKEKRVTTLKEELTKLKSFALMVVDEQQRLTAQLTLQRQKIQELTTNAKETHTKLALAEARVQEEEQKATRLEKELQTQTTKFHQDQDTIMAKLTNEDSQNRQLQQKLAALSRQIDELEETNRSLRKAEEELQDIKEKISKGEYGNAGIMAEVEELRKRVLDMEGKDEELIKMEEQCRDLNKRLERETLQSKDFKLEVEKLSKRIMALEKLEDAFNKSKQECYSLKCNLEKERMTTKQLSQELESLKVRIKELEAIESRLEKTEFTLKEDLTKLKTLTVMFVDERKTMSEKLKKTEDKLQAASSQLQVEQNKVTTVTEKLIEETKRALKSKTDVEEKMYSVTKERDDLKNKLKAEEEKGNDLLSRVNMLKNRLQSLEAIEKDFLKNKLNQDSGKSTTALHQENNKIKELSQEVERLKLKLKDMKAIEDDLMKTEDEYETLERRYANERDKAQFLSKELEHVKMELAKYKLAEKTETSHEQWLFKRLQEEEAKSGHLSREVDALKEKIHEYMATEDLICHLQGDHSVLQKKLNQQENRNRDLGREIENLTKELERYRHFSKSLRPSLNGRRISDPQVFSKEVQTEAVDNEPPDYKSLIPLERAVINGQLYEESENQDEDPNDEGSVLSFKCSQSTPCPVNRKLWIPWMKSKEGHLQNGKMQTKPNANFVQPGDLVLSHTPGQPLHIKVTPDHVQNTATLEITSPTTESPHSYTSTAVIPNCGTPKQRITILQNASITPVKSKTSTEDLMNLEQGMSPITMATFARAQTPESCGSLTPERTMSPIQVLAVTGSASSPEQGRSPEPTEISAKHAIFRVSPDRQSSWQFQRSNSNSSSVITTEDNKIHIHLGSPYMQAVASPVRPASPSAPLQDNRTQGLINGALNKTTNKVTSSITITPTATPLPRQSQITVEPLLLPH
# The other results are listed elsewhere or left out.
# Compound: Cc1cc(ccc1-c1ccccc1)C(=O)N1CCCN(CC1)C(=O)CCl [compound 10]
# Experiment: probe-labelled cysteine peptide fold change vs DMSO (competition) (log2 fold change); higher = less target engagement (more negative = stronger competition)
# Settings: 10 µM; THP-1; incubation time: 4 h
# 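Note: competitive profiling in live THP-1 cells: cysteine peptides tagged with an iodoacetamide desthiobiotin (IA-DTB) probe, intensity after compound treatment relative to DMSO-treated cells.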
row,Target,probe-labelled cysteine peptide fold change
1,FKBP8_Q14318_227_KRECGNAHYQR (UniProt Q14318),0.125
2,FOCAD_Q5VW36_758_IRPEIPIPEELDDDEDVEDVDLSVPGSCYLK (UniProt Q5VW36),-0.0885
3,FLNB_O75369_2556_AGSNMLLIGVHGPTTPCEEVSMK (UniProt O75369),-0.0862
4,G6PD_P11413_269_DVMQNHLLQMLCLVAMEK (UniProt P11413),0.335
5,FLNB_O75369_2501_SSTETCYSAIPK (UniProt O75369),-0.187
6,GABPB1_Q06547-3_355_SLLPGVLCR (UniProt Q06547),0.135
7,FKBP5_Q13451_215_MQREEQCILYLGPR (UniProt Q13451),0.0798
8,G6PD_P11413_13_TQVCGILR (UniProt P11413),0.112
9,FNDC3A_Q9Y2H6_369_GTPSEAEIFTTLSCEPDIPNPPR (UniProt Q9Y2H6),-0.256
10,FLAD1_Q8NFF5_236_LHYGTDPCTGQPFR (UniProt Q8NFF5),-0.154
11,FHOD1_Q9Y613_164_DLVPEFVHSEGLSCLIR (UniProt Q9Y613),0.209
12,FLAD1_Q8NFF5_236_LHYGTDPCTGQPFRFPLVSVR (UniProt Q8NFF5),-0.12
13,G3BP2_Q9UN86_73_VLSLNFSECHTK (UniProt Q9UN86),0.143
14,FLNB_O75369_2333_VHSPSGAVEECHVSELEPDK (UniProt O75369),-0.0699
15,FN1_P02751_231_CNDQDTR (UniProt P02751),-0.26
16,FSCN1_Q16658_80_YLAADKDGNVTCER (UniProt Q16658),-0.138
17,GALE_Q14376_330_MCEDLWR (UniProt Q14376),0.036
18,FPGS_Q05932_111+116_GSTCAFTECILR (UniProt Q05932),-0.124
19,FLNB_O75369_1081_GAGTGGLGLTVEGPCEAK (UniProt O75369),-0.0839

row,Target,probe-labelled cysteine peptide fold change
1,FUS_P35637_433_CPNPTCENMNFSWR (UniProt P35637),0.134
2,GAK_O14976_595_SGCRPFCEVYVGDER (UniProt O14976),0.00365
3,FHL2_Q14192_275_GFLTERDDILCPDCGK (UniProt Q14192),0.0254
4,FYCO1_Q9BQS8_848_AHVQELLQCSER (UniProt Q9BQS8),-0.0898
5,FIG4_Q92562_652_HLPLPYDEVICAVNLK (UniProt Q92562),0.25
6,FNBP1L_Q5T0N5_543_GPPQQHGHHNEFDDEFEDDDPLPAIGHCK (UniProt Q5T0N5),-0.0896
7,FLNB_O75369_622_EPGEYAVHIMCDDEDIK (UniProt O75369),-0.211
8,FLAD1_Q8NFF5_409_DCTALLHLFHAAVQR (UniProt Q8NFF5),0.157
9,GALK2_Q01415_379_DMYECSCPELDQLVDICR (UniProt Q01415),0.0691
10,G6PC3_Q9BUM1_269_DSGAALGLGIALHSPCYAQVR (UniProt Q9BUM1),-0.15
11,FLII_Q13045_982_QPEEDFQCIVYFWQGR (UniProt Q13045),0.288
12,GABPA_Q06546_61+69_LQCSLDAHEICLQDIQLDPER (UniProt Q06546),0.275
13,FKBPL_Q9UIM3_168_CLESMCQGEEAELQLPGHSGPPVR (UniProt Q9UIM3),-0.0161
14,FILIP1L_Q4L180_990_AQTPESCGSLTPER (UniProt Q4L180),-0.305
15,FUCA1_P04066_296_FKPQSLPDHKWEMCTSIDK (UniProt P04066),-0.0934
16,FRY_Q5TBA9_120_GEDPQFDQVISSMSSLSEYCLPSILR (UniProt Q5TBA9),0.261
17,GAK_O14976_1142_ACTQPRPNYASNFSVIGAR (UniProt O14976),-0.198
18,FLAD1_Q8NFF5_147_SLGVQVCR (UniProt Q8NFF5),0.131

# Same assay, conditions: 50 µM; THP-1; incubation time: 4 h
row,Target,probe-labelled cysteine peptide fold change
1,FKBP8_Q14318_227_KRECGNAHYQR (UniProt Q14318),-0.201
2,FOCAD_Q5VW36_758_IRPEIPIPEELDDDEDVEDVDLSVPGSCYLK (UniProt Q5VW36),0.0745
3,FLNB_O75369_2556_AGSNMLLIGVHGPTTPCEEVSMK (UniProt O75369),0.0907
4,G6PD_P11413_269_DVMQNHLLQMLCLVAMEK (UniProt P11413),0.461
5,FLNB_O75369_2501_SSTETCYSAIPK (UniProt O75369),-0.4
6,GABPB1_Q06547-3_355_SLLPGVLCR (UniProt Q06547),-0.515
7,FKBP5_Q13451_215_MQREEQCILYLGPR (UniProt Q13451),-0.172
8,G6PD_P11413_13_TQVCGILR (UniProt P11413),0.00731
9,FNDC3A_Q9Y2H6_369_GTPSEAEIFTTLSCEPDIPNPPR (UniProt Q9Y2H6),0.221
10,FLAD1_Q8NFF5_236_LHYGTDPCTGQPFR (UniProt Q8NFF5),-0.0755
11,FHOD1_Q9Y613_164_DLVPEFVHSEGLSCLIR (UniProt Q9Y613),0.238
12,FLAD1_Q8NFF5_236_LHYGTDPCTGQPFRFPLVSVR (UniProt Q8NFF5),-0.247
13,G3BP2_Q9UN86_73_VLSLNFSECHTK (UniProt Q9UN86),0.0138
14,FLNB_O75369_2333_VHSPSGAVEECHVSELEPDK (UniProt O75369),0.064
15,FN1_P02751_231_CNDQDTR (UniProt P02751),-0.511
16,FSCN1_Q16658_80_YLAADKDGNVTCER (UniProt Q16658),-0.591
17,GALE_Q14376_330_MCEDLWR (UniProt Q14376),-0.0538
18,FPGS_Q05932_111+116_GSTCAFTECILR (UniProt Q05932),-0.693
19,FLNB_O75369_1081_GAGTGGLGLTVEGPCEAK (UniProt O75369),0.0226

row,Target,probe-labelled cysteine peptide fold change
1,FUS_P35637_433_CPNPTCENMNFSWR (UniProt P35637),0.15
2,GAK_O14976_595_SGCRPFCEVYVGDER (UniProt O14976),-0.366
3,FHL2_Q14192_275_GFLTERDDILCPDCGK (UniProt Q14192),-0.163
4,FYCO1_Q9BQS8_848_AHVQELLQCSER (UniProt Q9BQS8),-0.154
5,FIG4_Q92562_652_HLPLPYDEVICAVNLK (UniProt Q92562),0.467
6,FNBP1L_Q5T0N5_543_GPPQQHGHHNEFDDEFEDDDPLPAIGHCK (UniProt Q5T0N5),-0.0118
7,FLNB_O75369_622_EPGEYAVHIMCDDEDIK (UniProt O75369),0.0989
8,FLAD1_Q8NFF5_409_DCTALLHLFHAAVQR (UniProt Q8NFF5),0.269
9,GALK2_Q01415_379_DMYECSCPELDQLVDICR (UniProt Q01415),-0.0385
10,G6PC3_Q9BUM1_269_DSGAALGLGIALHSPCYAQVR (UniProt Q9BUM1),-0.581
11,FLII_Q13045_982_QPEEDFQCIVYFWQGR (UniProt Q13045),0.568
12,GABPA_Q06546_61+69_LQCSLDAHEICLQDIQLDPER (UniProt Q06546),-0.128
13,FKBPL_Q9UIM3_168_CLESMCQGEEAELQLPGHSGPPVR (UniProt Q9UIM3),-0.274
14,FILIP1L_Q4L180_990_AQTPESCGSLTPER (UniProt Q4L180),0.00388
15,FUCA1_P04066_296_FKPQSLPDHKWEMCTSIDK (UniProt P04066),-0.389
16,FRY_Q5TBA9_120_GEDPQFDQVISSMSSLSEYCLPSILR (UniProt Q5TBA9),0.241
17,GAK_O14976_1142_ACTQPRPNYASNFSVIGAR (UniProt O14976),-0.399
18,FLAD1_Q8NFF5_147_SLGVQVCR (UniProt Q8NFF5),-0.00527
